Experimental data as given in article PMC7819943, “Rice protein-binding microarrays: a tool to detect cis-acting elements near promoter regions in rice”.
The other results are listed elsewhere or left out.

The sequences below were run against T1, OsSMF1 (Oryza sativa, UniProt Q6ZLB0 1-436) (assay: protein-binding microarray (RPBM); PBS, 2% BSA, 51.3 ng/ul salmon testes DNA, 50 uM zinc acetate, 200 nM TF, 25 C, 1 h; high values mean tight binding). Settings: protein: recombinant; tags: N-terminal polyhistidine and DsRed monomer fusion (pET32a); chain copies: 2; label: CyDye5-dUTP incorporated in the synthesized complementary strand; 3' TTTTT single-stranded linker to array surface; dsDNA, one strand shown.
T1 sequence: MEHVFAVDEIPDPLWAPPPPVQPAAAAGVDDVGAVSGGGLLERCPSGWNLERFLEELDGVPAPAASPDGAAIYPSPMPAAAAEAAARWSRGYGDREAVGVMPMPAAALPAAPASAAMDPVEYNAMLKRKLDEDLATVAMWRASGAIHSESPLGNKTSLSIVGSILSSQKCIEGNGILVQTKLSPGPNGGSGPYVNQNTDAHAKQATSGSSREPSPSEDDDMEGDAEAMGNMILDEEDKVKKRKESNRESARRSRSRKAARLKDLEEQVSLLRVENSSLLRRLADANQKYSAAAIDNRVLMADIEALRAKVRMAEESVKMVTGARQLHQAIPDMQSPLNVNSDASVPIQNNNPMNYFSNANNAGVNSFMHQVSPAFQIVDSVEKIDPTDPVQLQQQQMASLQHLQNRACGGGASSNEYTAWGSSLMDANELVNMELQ
Method in brief: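 An Axon 4000B scanner gave the binding signal as per-feature fluorescence intensity in arbitrary units. This followed washing of a custom Agilent array that had been incubated for 1 h at 25 °C with 200 nM protein in PBS, 2% BSA, salmon testes DNA and 50 µM zinc acetate. The proteins were transcription factors fused at the N-terminus to polyhistidine and DsRed, expressed in E. coli BL21-CodonPlus and purified on Ni–NTA.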

Q: For “GTTTTGCATTCTTTTGTTCATGACTGTGATGTACACTTGTCGGAGTCACCTAGTGCAG”, which binding signal is on record?
A: 3290 fluorescence intensity (a.u.)

Q: For “GCCGTTGTCCGAAGGTTCAGCATATTGCTGACATATTGCCCGGAGTCACCTAGTGCAG”, which binding signal is on record?
A: 4940 fluorescence intensity (a.u.)

Q: How did the binding signal turn out when “GCCGGTGATCATGGCCCAAGTCAATCGTCACAAGCTCCACCGGAGTCACCTAGTGCAG” was run?
A: 3740 fluorescence intensity (a.u.)

Q: How did the binding signal turn out when “ACTGTAAATTGCGAGACGAATCTTTTGAGCCTAATTATGCCGGAGTCACCTAGTGCAG” was run?
A: 27400 fluorescence intensity (a.u.)

Q: “GCCGACCTCCCACCCCAGGCGATGGCATCCAGATCAGCTCCGGAGTCACCTAGTGCAG” was tested. Which binding signal did it give?
A: 14800 fluorescence intensity (a.u.)

Q: How did the binding signal turn out when “TAGGCCGGTGTGCGCGACGGTGCTGACGCGTAAGAAGTGCCGGAGTCACCTAGTGCAG” was run?
A: 7160 fluorescence intensity (a.u.)

Q: “CCGAATTTGTAGCCTTACAATCAGCCAAGTCAGCACCCGCCGGAGTCACCTAGTGCAG” was tested. Which binding signal did it give?
A: 10400 fluorescence intensity (a.u.)

Q: With “CACGTGGGTCCCACGCTGATTGGGCTGCCACGTCAGACAACGGAGTCACCTAGTGCAG” as the sequence, how does the binding signal read?
A: 24600 fluorescence intensity (a.u.)

Q: “AGTGGCGTAGGTGGCATCAACCTAGCGGTGGAGGCGGTATCGGAGTCACCTAGTGCAG” was tested. Which binding signal did it give?
A: 3680 fluorescence intensity (a.u.)

Q: With “ATACGTGCCAAATCAGAGAAAACTGGGCCCACGTGTGAACCGGAGTCACCTAGTGCAG” as the sequence, how does the binding signal read?
A: 6420 fluorescence intensity (a.u.)

Q: “TCTTATCTGCTTCTTTCTTTAGCTTGCTAGCTACTAGTACCGGAGTCACCTAGTGCAG” was tested. Which binding signal did it give?
A: 16800 fluorescence intensity (a.u.)

Q: With “CTCCCATCGTCATCCCACGATCACCGATTCACTCTCCTAGCGGAGTCACCTAGTGCAG” as the sequence, how does the binding signal read?
A: 3300 fluorescence intensity (a.u.)

Q: How did the binding signal turn out when “GACGAGTCGATCGATCTCGACTCCGTCACACCTGCTGCCGCGGAGTCACCTAGTGCAG” was run?
A: 3170 fluorescence intensity (a.u.)

Q: How did the binding signal turn out when “GAAGCCACAGTCGGAGTTGTTCAAACATGACTGTTCCAGCCGGAGTCACCTAGTGCAG” was run?
A: 3660 fluorescence intensity (a.u.)

Q: Which binding signal does the source give for “CCGTCTACCATGGTACCACCGCGCGCGTCACGTTGCAACGCGGAGTCACCTAGTGCAG” here?
A: 3200 fluorescence intensity (a.u.)

Q: For “TCGCGCGCGTCGCATGAATGTTCCACACGCCGATCATGACCGGAGTCACCTAGTGCAG”, which binding signal is on record?
A: 3890 fluorescence intensity (a.u.)

Q: For “TCTAAACTTGTACTCTAATAGTATTCAACAATCCACGTCACGGAGTCACCTAGTGCAG”, which binding signal is on record?
A: 12100 fluorescence intensity (a.u.)

Q: For “AGTGCCAGTTTTCCTCCTACGTAATCTAAGCTAGCCAGGTCGGAGTCACCTAGTGCAG”, which binding signal is on record?
A: 3230 fluorescence intensity (a.u.)

Q: “AATTCAAGCATTGTATACGTCATTAGTCCGATTCTTTGTACGGAGTCACCTAGTGCAG” was tested. Which binding signal did it give?
A: 5570 fluorescence intensity (a.u.)

Q: For “CGGTTGTGCATTCTTAGGATGGCAAGAAGTAGAATGATATCGGAGTCACCTAGTGCAG”, which binding signal is on record?
A: 33100 fluorescence intensity (a.u.)

Q: For “AGGGTTGAGAGGTGAGTGGCGGCGGAAGGAATCCACAAGTCGGAGTCACCTAGTGCAG”, which binding signal is on record?
A: 3720 fluorescence intensity (a.u.)

Q: For “ACGGATCATGTATACTACTACCATGATGATGAGTCATTTTCGGAGTCACCTAGTGCAG”, which binding signal is on record?
A: 6300 fluorescence intensity (a.u.)

Q: Which binding signal does the source give for “ATCGGATTATCAGTTCCGGTCACAATTCGATCAATAAACGCGGAGTCACCTAGTGCAG” here?
A: 12800 fluorescence intensity (a.u.)

Q: Which binding signal does the source give for “GGTTAATTATATGTGTGCGCGCCATGTTTGTCATTGTTAACGGAGTCACCTAGTGCAG” here?
A: 3330 fluorescence intensity (a.u.)

Q: “ACTTTAAACCCACGTTGTCAGTGGCTGCACGATGGGCCAACGGAGTCACCTAGTGCAG” was tested. Which binding signal did it give?
A: 3340 fluorescence intensity (a.u.)

Q: How did the binding signal turn out when “CGACACATTTTGCATTGATGACATGGTTAACTATACGACACGGAGTCACCTAGTGCAG” was run?
A: 5720 fluorescence intensity (a.u.)

Q: For “CGTCCCGAGAGGAATGCGGTGACGCAGGCGTCGCCGTTATCGGAGTCACCTAGTGCAG”, which binding signal is on record?
A: 4400 fluorescence intensity (a.u.)

Q: How did the binding signal turn out when “GGAGGGCGTGTCGTGCGACGCCGCCACGGGGAGGGTCGTCCGGAGTCACCTAGTGCAG” was run?
A: 3170 fluorescence intensity (a.u.)

Q: “ATGTAACCCAACAAAAGGAGTGTAGAGTCATTGGCATACCCGGAGTCACCTAGTGCAG” was tested. Which binding signal did it give?
A: 3910 fluorescence intensity (a.u.)

Q: “CACGACCACCTCTGAGGTCATTATTTCCATTTTGGCCCAGCGGAGTCACCTAGTGCAG” was tested. Which binding signal did it give?
A: 25100 fluorescence intensity (a.u.)

Q: For “GCACCATCCCAGGTCGCCATGACGTGGTCGCAGCTAGTTTCGGAGTCACCTAGTGCAG”, which binding signal is on record?
A: 6370 fluorescence intensity (a.u.)

Q: Which binding signal does the source give for “TGGAAATAATCAGTGCTTCTTCGTCATGAAGCCTACTTACCGGAGTCACCTAGTGCAG” here?
A: 3540 fluorescence intensity (a.u.)

Q: For “ATAAGTCGGTCTGACTGATTGCGTCATGTAACAAACATTCCGGAGTCACCTAGTGCAG”, which binding signal is on record?
A: 9050 fluorescence intensity (a.u.)

Q: “ATCCTCCGCCGCCGCCTCACCTCCTCCGCCACCGCGCTCGCGGAGTCACCTAGTGCAG” was tested. Which binding signal did it give?
A: 4020 fluorescence intensity (a.u.)

Q: Which binding signal does the source give for “GCTACAACGCAGCCGTAACCCAGGTGTCTGAACAGGACCGCGGAGTCACCTAGTGCAG” here?
A: 30200 fluorescence intensity (a.u.)

Q: How did the binding signal turn out when “CGTCTTTTCGGCCCAATGGGCTAAACCGAACACGGTGGCGCGGAGTCACCTAGTGCAG” was run?
A: 3900 fluorescence intensity (a.u.)

Q: “CGCACCATGACGTCATCCAACCTCCTCCTCCTCCGCTTAACGGAGTCACCTAGTGCAG” was tested. Which binding signal did it give?
A: 11400 fluorescence intensity (a.u.)

Q: For “ACAACCCCTCTATATATACTTGTGGCTGTCCGATTTGAGGCGGAGTCACCTAGTGCAG”, which binding signal is on record?
A: 3360 fluorescence intensity (a.u.)

Q: For “GTCGCCGTCGCCGTCGTGCGCCGCGATCATCCTGACGCAGCGGAGTCACCTAGTGCAG”, which binding signal is on record?
A: 4390 fluorescence intensity (a.u.)

Q: Which binding signal does the source give for “TCCCTGGCACGTCTCCACAACCTTTGAAGTTCACCCGTGCCGGAGTCACCTAGTGCAG” here?
A: 3760 fluorescence intensity (a.u.)

Q: Which binding signal does the source give for “TTGTCCAGGTCCACTGCTGGAACTGCAAGCAGATGCCATCCGGAGTCACCTAGTGCAG” here?
A: 22500 fluorescence intensity (a.u.)

Q: With “AACCTTTTCGCGCGCTTTTGACATCATCCTTTTGCTTGGCCGGAGTCACCTAGTGCAG” as the sequence, how does the binding signal read?
A: 3480 fluorescence intensity (a.u.)

Q: How did the binding signal turn out when “TTAGTGTGCGCGCATAAATAACTCTTTTGCGTGCACAGAACGGAGTCACCTAGTGCAG” was run?
A: 3400 fluorescence intensity (a.u.)

Q: “AGAATAAAATCAAGGAGGCCCGGATGAGCGCCACGTGGCGCGGAGTCACCTAGTGCAG” was tested. Which binding signal did it give?
A: 24600 fluorescence intensity (a.u.)

Q: Which binding signal does the source give for “TGATCGCTACAGAGGTTACGCTATACAACCGCAGTTAAGCCGGAGTCACCTAGTGCAG” here?
A: 15700 fluorescence intensity (a.u.)

Q: Which binding signal does the source give for “ACATGTGGCTGAAGTGTGCCTGCGTCGCCCGCCGTGTGCCCGGAGTCACCTAGTGCAG” here?
A: 3180 fluorescence intensity (a.u.)

Q: For “GCTGACAGCTGCTCCACATCGGCGCCCAAACCCTAACCTCCGGAGTCACCTAGTGCAG”, which binding signal is on record?
A: 18000 fluorescence intensity (a.u.)

Q: For “ATAGGAAGGGAAGCAACGGAGGAGGAGATCGGCTGGTGGTCGGAGTCACCTAGTGCAG”, which binding signal is on record?
A: 7740 fluorescence intensity (a.u.)

Q: Which binding signal does the source give for “ATACGACCCACACCCTTCTCTCCAACCTCAAGAAAACTATCGGAGTCACCTAGTGCAG” here?
A: 29200 fluorescence intensity (a.u.)

Q: “GGGCCTCGCCCACGCCACGCACGCCAATCCAACCAGCGTCCGGAGTCACCTAGTGCAG” was tested. Which binding signal did it give?
A: 6340 fluorescence intensity (a.u.)

Q: “CCACAAAGCAACAACATCACCACCACATCATCCCTCTACCCGGAGTCACCTAGTGCAG” was tested. Which binding signal did it give?
A: 3420 fluorescence intensity (a.u.)

Q: How did the binding signal turn out when “GTTGCGAGTGGAGCGGATCGGTGACGTGGCAATGGTTCTGCGGAGTCACCTAGTGCAG” was run?
A: 22300 fluorescence intensity (a.u.)

Q: How did the binding signal turn out when “CTTGCACTCAACCACGCCTTGATCTCCCACACGCGAGCCACGGAGTCACCTAGTGCAG” was run?
A: 31400 fluorescence intensity (a.u.)

Q: Which binding signal does the source give for “CTTGTTGTGTTCTACACTTGGTGATGCTGCTGCTTCTGCTCGGAGTCACCTAGTGCAG” here?
A: 3690 fluorescence intensity (a.u.)
